Assay results from the supplement of paper PMC8166895.
Counter-ions that a name gives are not always drawn. This is one part of the list. Most values lie at the level of the controls, where differences are scatter.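 A single-replicate pilot screen of approved drugs and clinical or known-target compounds measured melting temperature via differential scanning fluorimetry. Top stabilizing hits raised the melting point by 2 °C or more; negative shifts indicate destabilization.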

System: SARS-CoV-2 main protease (Mpro, nsp5)
Assay: thermal shift ΔTm of Mpro relative to plate average Tm; higher = stronger thermal stabilization of Mpro (binding)
Conditions: 10 µM; protein concentration 1 µM

SMILES	thermal shift ΔTm of Mpro [°C]
Nc1nccc2c1ncn2C1C=C(CO)C(O)C1O (stereo unspecified) [3-Deazaneplanocin A (DZNeP)]	0.0249
C[C@@H]1O[C@@H](OC[C@H]2O[C@@H](Oc3c(-c4ccc(O)c(O)c4)oc4cc(O)cc(O)c4c3=O)[C@H](O)[C@@H](O)[C@@H]2O)[C@H](O)[C@H](O)[C@H]1O [Rutin]	-0.169
CC(O)(CS(=O)(=O)c1ccc(F)cc1)C(=O)Nc1ccc(C#N)c(C(F)(F)F)c1 (stereo unspecified) [Bicalutamide]	0.119
COc1ccnc2[nH]cc(C(=O)C(=O)N3CCN(C(=O)c4ccccc4)C[C@H]3C)c12	0.0379
Cc1nn(C)c(COc2ccc(N3CCN(S(=O)(=O)N(C)C)CC3)cc2)c1-c1cccc2c(CCCOc3cccc4ccccc34)c(C(=O)O)n(CCN3CCOCC3)c12	0.0497
CO/N=C(\C(=O)N[C@@H]1C(=O)N2C(C(=O)O)=C(CSC(=O)c3ccco3)CS[C@H]12)c1csc(N)n1 [Ceftiofur HCl]	0.164
CO/N=C(\C(=O)N[C@@H]1C(=O)N2C(C(=O)O)=C(CSC(=O)c3ccco3)CS[C@H]12)c1csc(N)n1 [Sodium ceftiofur]	0.0826
CN(C)C(=O)N[C@H]1CC[C@H](CCN2CCN(c3cccc(Cl)c3Cl)CC2)CC1 [Cariprazine]	-0.047
CN1[C@@H]2CC[C@H]1C[C@@H](OC(c1ccccc1)c1ccccc1)C2 [Benztropine mesylate]	0.0524
CN1CCc2cc3c(cc2C1C1OC(=O)c2c1ccc1c2OCO1)OCO3 (single isomer, unassigned; (+)) [(+)-Bicuculline]	-0.115
N=C(N)c1ccc(N=NNc2ccc(C(=N)N)cc2)cc1 [Diminazene Aceturate]	-0.179
C[C@H](CCC(=O)O)[C@H]1CC[C@H]2[C@@H]3C[C@H](O)[C@@H]4C[C@H](O)CC[C@]4(C)[C@H]3CC[C@]12C [Hyodeoxycholic acid (HDCA)]	-0.209
O=C(Nc1ccccc1)OCC(CN1CCCCC1)OC(=O)Nc1ccccc1 (stereo unspecified) [Diperodon hydrochloride]	0.288
Cc1nc2c(C)cccn2c(=O)c1CCN1CCC(c2noc3cc(F)ccc23)CC1 [Ocaperidona]	0.0502
COc1cc2c(cc1OC)-c1c(C)c3ccc(OC)c(OC)c3c[n+]1CC2 [Dehydrocorydaline nitrate]	-0.0165
COc1cc2c(cc1OC)-c1c(C)c3ccc(OC)c(OC)c3c[n+]1CC2 [Dehydrocorydalin]	-0.0936
CC1(C)C(=O)N(CCN2CCC(C(=O)c3ccc(F)cc3)CC2)c2ccccc21	-0.191
CC(C)(C)OC(=O)N[C@H]1CCCCC/C=C\[C@@H]2C[C@@]2(C(=O)NS(=O)(=O)C2CC2)NC(=O)[C@@H]2C[C@@H](OC(=O)N3Cc4cccc(F)c4C3)CN2C1=O [Danoprevir (ITMN-191)]	0.193
CCN1CCN(C(=O)Cc2ccc(Nc3ncc(F)c(Nc4ccc(C(=O)Nc5ccccc5Cl)cc4)n3)cc2)CC1 [Aurora A Inhibitor I]	0.431
CC[C@@]1(O)C(=O)OCc2c1cc1n(c2=O)Cc2cc3c(CN(C)C)c(O)ccc3nc2-1 [Topotecan HCl]	0.0853
Cc1cc(Nc2cc(CN3CCOCC3)c3nc(C)c(Cc4ccc(Cl)cc4F)n3n2)n[nH]1	-0.304

SMILES	thermal shift ΔTm of Mpro [°C]
Brc1ccc(C2CN3CCSC3=N2)cc1 (single isomer, unassigned; (-)) [(-)-p-Bromotetramisole Oxalate]	-0.218
CCOC(=O)N[C@@H]1CC[C@@H]2[C@@H](C1)C[C@H]1C(=O)O[C@H](C)[C@H]1[C@H]2/C=C/c1ccc(-c2cccc(F)c2)cn1 [Vorapaxar]	-0.135
CCOC(=O)N[C@@H]1CC[C@@H]2[C@@H](C1)C[C@H]1C(=O)O[C@H](C)[C@H]1[C@H]2/C=C/c1ccc(-c2cccc(F)c2)cn1 [Vorapaxar sulfate]	-0.162
Nc1nnc(-c2cccc(Cl)c2Cl)c(N)n1 [Lamotrigine]	-0.0606
Nc1nc(=O)[nH]cc1F [Flucytosine]	0.0593
CCN1CCN(c2ccc(Nc3cc(N(C)C(=O)Nc4c(Cl)c(OC)cc(OC)c4Cl)ncn3)cc2)CC1 [Infigratinib]	-0.0222
Oc1cc(O)cc(/C=C/c2ccc(O)c(O)c2)c1 [Piceatannol]	-0.375
O=C(NC1CC1)c1cc(-c2cccs2)on1 [Isoxazole 9 (ISX-9)]	-0.0581
CS(=O)(=O)c1ccc(NC(=O)c2cc(C#N)c(Sc3c(Cl)cncc3Cl)s2)cc1 [USP7/USP47 inhibitor]	0.288
CN1CCN(c2ccc(Nc3cc(-c4cccc(-n5ccc6cc(C7CC7)cc(F)c6c5=O)c4CO)cn(C)c3=O)nc2)CC1	-0.0536
CC(=O)O[C@]1(C(C)=O)CC[C@H]2[C@@H]3C=C(C)C4=CC(=O)CC[C@]4(C)[C@H]3CC[C@@]21C [Megestrol Acetate]	0.154
C=C1[C@H](CO)[C@@H](O)C[C@@H]1n1cnc2c(=O)[nH]c(N)nc21 [Entecavir Hydrate]	0.202
C=C1[C@H](CO)[C@@H](O)C[C@@H]1n1cnc2c(=O)[nH]c(N)nc21 [Entecavir]	-0.0641
CN(C)C(=O)c1cc2cnc(Nc3ccc(N4CCNCC4)cn3)nc2n1C1CCCC1	-0.157
CCCOc1ccc(C=C2SC(=O)NC2=O)cc1	0.028
O=c1cccc2n1C[C@@H]1CNC[C@H]2C1 [Cytisine]	-0.141
CCCC(=O)Nc1cccc(NC(=O)c2ccccc2Br)c1	0.0537
C#CC1(O)CC[C@H]2[C@@H]3CCC4=CC(=O)CC[C@@H]4[C@H]3CC[C@@]21CC (stereo partly specified) [Norgestrel]	0.152
CO[C@H]1C[C@@H]2CC[C@@H](C)[C@@](O)(O2)C(=O)C(=O)N2CCCC[C@H]2C(=O)O[C@H]([C@H](C)C[C@@H]2CC[C@H](n3cnnn3)[C@H](OC)C2)CC(=O)[C@H](C)/C=C(\C)[C@@H](O)[C@@H](OC)C(=O)[C@H](C)C[C@H](C)/C=C/C=C/C=C/1C [Zotarolimus(ABT-578)]	-0.055
CN(C)Cc1ccc(-c2cnn3c(-c4cccc(NC(=O)c5cccc(C(F)(F)F)c5)c4)ccnc23)cc1	0.381

Random excerpt: two entries already listed.
SMILES	thermal shift ΔTm of Mpro [°C]
O=c1cccc2n1C[C@@H]1CNC[C@H]2C1 [Cytisine]	-0.141
C#CC1(O)CC[C@H]2[C@@H]3CCC4=CC(=O)CC[C@@H]4[C@H]3CC[C@@]21CC (stereo partly specified) [Norgestrel]	0.152
